Test results as given in the supplement of paper PMC12067093, “Discovery and optimisation of a covalent ligand for TRIM25 and its application to targeted protein ubiquitination” (Chemical Science, 2025).
Some of the results follow.

compound: CC1Cc2ccccc2N1C(=O)C1CCCN(C1)C(=O)CCl (mixture of isomers) [TRIM25 ligand 11 (diastereomer mixture)]; assay: probe-labelled cysteine peptide fold change vs DMSO (competition) (log2 fold change); higher = less target engagement (more negative = stronger competition); details: 10 µM; THP-1; incubation time: 4 h
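Also: competitive chemoproteomic profiling in live THP-1 cells with an iodoacetamide desthiobiotin (IA-DTB) probe, comparing probe-labelled peptide intensities in compound-treated cells against DMSO-treated controls.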

| Target | probe-labelled cysteine peptide fold change |
| --- | --- |
| QDPR_P09417_85_VDAILCVAGGWAGGNAK (UniProt P09417) | 0.0559 |
| RAB21_Q9UL25_126+128_MLGNEICLCIVGNK (UniProt Q9UL25) | -0.135 |
| PYGL_P06737_446_INMAHLCIVGSHAVNGVAK (UniProt P06737) | -0.047 |
| RAD50_Q92878_133_CAEIDREMISSLGVSK (UniProt Q92878) | -0.141 |
| RABGEF1_Q9UJ41_157_GIHVDQSDLLCK (UniProt Q9UJ41) | -0.0345 |
| RAB3GAP1_Q15042_858_CEQEEEK (UniProt Q15042) | 0.188 |
| RAB18_Q9NP72_110_LDNWLNELETYCTR (UniProt Q9NP72) | 0.0203 |
| RABIF_P47224_23_AVLCQR (UniProt P47224) | -0.0165 |
| RAB3GAP1_Q15042_873_FVSCLLEQPEVLVTGAGR (UniProt Q15042) | 0.274 |
| RAC2_P15153_105_HHCPSTPIILVGTK (UniProt P15153) | -0.029 |
| RACGAP1_Q9H0H5_93_QRAEADCEK (UniProt Q9H0H5) | 0.109 |
| QRICH1_Q2TAL8_713_CPQSVK (UniProt Q2TAL8) | -0.091 |
| RAD50_Q92878_133_CAEIDR (UniProt Q92878) | 0.183 |
| RABEP1_Q15276_263_ELHEVCHLLEQER (UniProt Q15276) | -0.0262 |
| PXK_Q7Z7A4_112_GLQNYLNVITTNHILSNCELVKK (UniProt Q7Z7A4) | -0.189 |
| QPRT_Q15274_111_CSGIASAAAAAVEAAR (UniProt Q15274) | -0.00534 |
| QSOX2_Q6ZRP7_539_LQWPTPDLCPACHEEIK (UniProt Q6ZRP7) | -0.0969 |

2 consecutive entries out of the list so far, quoted:

| Target | probe-labelled cysteine peptide fold change |
| --- | --- |
| RAB3GAP1_Q15042_873_FVSCLLEQPEVLVTGAGR (UniProt Q15042) | 0.274 |
| RAC2_P15153_105_HHCPSTPIILVGTK (UniProt P15153) | -0.029 |
